# PubChem BioAssay AID1259308 | NCATS – 2017
# Purpose: 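Genes whose loss raises luciferase production in HEK293 cells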 (primary screen)
# Cell system: human HEK293 embryonic kidney cells stably expressing firefly luciferase (HEK-CMV-Luc2-Hygro)
# Knock-down reagent: single siRNA against human genes, 0.8 pmol siRNA per well
# Duration: 72 h
# Measured: 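Luciferase light (ONE-Glo) measured on one replicate plate set and viability (CellTiter-Glo) on the other, scaled to a negative control siRNA, with robust z-scores and luciferase per cell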
# Scale: total luciferase, z-score and total luciferase, % of control: higher = more reporter protein produced; luciferase per cell, z-score: higher = more reporter output per viable cell; viable cells, % of control: higher = more viable cells
# Active means: 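An siRNA counts as active if its total luciferase robust z-score exceeds 3; genes with two or more such siRNAs out of three were retested with fresh siRNAs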
# Calls: active = raised luciferase; inactive = no rise
# Here is one part, drawn at random, of about 59,000 deposited reagents. Over the whole deposit, about 1,510 (2.6%) are marked active. 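Calls use total luciferase alone and ignore viability, so some active siRNAs may act by altering cell number.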 No sequences are given here.
gene,PubChem SID,"total luciferase, z-score","total luciferase, % of control","luciferase per cell, z-score","viable cells, % of control",outcome
ASCL1,SID160720611,1.39,110,1.34,86.2,inactive
ASCL1,SID160720622,0.702,95.8,-0.146,111,inactive
ASCL1,SID160720633,-0.744,67.1,-1.02,98,inactive
C6orf136,SID160761725,0.0795,83.5,0.226,87.9,inactive
C6orf136,SID160761727,-0.203,77.8,-0.335,95,inactive
C6orf136,SID160761728,-1.21,57.8,-0.889,81.6,inactive
FEZ2,SID160722676,2.15,125,1.44,95.3,inactive
FEZ2,SID160722677,0.0574,83,0.3,85.7,inactive
FEZ2,SID160722678,0.166,85.2,-0.119,98.2,inactive
TDP1,SID160744327,1.02,102,0.862,90.9,inactive
TDP1,SID160744329,0.374,89.3,0.237,93.8,inactive
TDP1,SID160744330,-1.07,60.6,-0.736,82.2,inactive
ZUP1,SID160761649,-0.231,77.3,-0.553,99.9,inactive
ZUP1,SID160761651,-0.0398,81.1,-0.15,94.3,inactive
ZUP1,SID160761652,0.578,93.4,0.644,88.1,inactive
PPFIA4,SID160720163,-1.6,50.1,-1.31,79.1,inactive
PPFIA4,SID160720164,-1.07,60.7,-1.75,107,inactive
PPFIA4,SID160720165,0.558,93,-0.2,110,inactive
CCDC89,SID160761529,1.62,114,3.29,53.7,inactive
CCDC89,SID160761530,0.369,89.2,0.611,84.9,inactive
CCDC89,SID160761533,-0.807,65.8,-0.52,84.4,inactive
CT47B1,SID160725622,-0.398,74,-0.13,85.6,inactive
CT47B1,SID160725623,2.46,131,2.7,71.8,inactive
CT47B1,SID160768838,0.705,95.9,0.254,100,inactive
SPPL3,SID160755938,-0.171,78.5,-0.41,97.7,inactive
SPPL3,SID160755939,0.181,85.5,-0.47,108,inactive
SPPL3,SID160755940,1.73,116,0.598,111,inactive
CACNB4,SID160735521,-0.051,80.9,-0.198,95.2,inactive
CACNB4,SID160735532,-0.64,69.2,-0.453,87.1,inactive
CACNB4,SID160735543,0.839,98.6,1.9,66.8,inactive
SAMD9L,SID160761218,0.873,99.3,0.763,90.7,inactive
SAMD9L,SID160761219,-0.276,76.4,0.317,78.5,inactive
SAMD9L,SID160761220,2.65,135,2.53,77.2,inactive
MYCT1,SID160750161,0.474,91.3,-0.278,110,inactive
MYCT1,SID160750162,0.0241,82.4,-0.634,109,inactive
MYCT1,SID160750163,1.79,117,1.58,86.7,inactive
TMEM255A,SID160742774,-1.11,59.7,-1.37,95.8,inactive
TMEM255A,SID160742775,1.56,113,1.35,88.4,inactive
TMEM255A,SID160742776,3.75,157,2.58,88.7,active
